# Experimental data from publication PMC4558571.
# Protein sequences, listed by entry. Tags and fused reporters are not part of them. Lines headed by an entry give the natural chain unless they say otherwise; changes in a name come on top.
# UniProt Q00613: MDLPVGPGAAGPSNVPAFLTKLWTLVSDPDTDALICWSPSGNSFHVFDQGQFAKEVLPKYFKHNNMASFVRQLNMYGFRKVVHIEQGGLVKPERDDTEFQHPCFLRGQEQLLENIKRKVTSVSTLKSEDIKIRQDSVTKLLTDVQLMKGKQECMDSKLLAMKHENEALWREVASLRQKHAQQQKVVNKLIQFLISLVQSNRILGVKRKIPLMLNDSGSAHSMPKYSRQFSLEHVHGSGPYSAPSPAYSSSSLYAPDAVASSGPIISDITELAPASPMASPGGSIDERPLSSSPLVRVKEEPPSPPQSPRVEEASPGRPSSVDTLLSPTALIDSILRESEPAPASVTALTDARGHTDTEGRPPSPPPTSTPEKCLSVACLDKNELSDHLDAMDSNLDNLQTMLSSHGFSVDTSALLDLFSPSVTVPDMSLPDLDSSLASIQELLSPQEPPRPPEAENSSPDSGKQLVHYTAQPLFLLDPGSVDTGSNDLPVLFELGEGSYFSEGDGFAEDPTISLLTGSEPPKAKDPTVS
# Results are given in words; binding and its absence hold for the method and conditions named. Binding seen in cells or lysates may run through a third protein. Some entries that bind do so weakly or less than the wild type.
# Target: T1, SSBP1, endogenous in HEK293 cells (human (endogenous in HEK293)) (UniProt Q04837)
# T1 sequence: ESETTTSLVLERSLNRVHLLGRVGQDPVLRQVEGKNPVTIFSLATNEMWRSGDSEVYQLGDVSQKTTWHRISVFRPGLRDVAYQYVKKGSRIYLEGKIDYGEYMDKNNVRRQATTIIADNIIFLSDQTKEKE
# Assay: co-IP; HEK293 cells transfected with Flag-tagged hHSF1 or a point mutant, NP-40 lysis buffer; precipitated with rabbit antiserum for SSBP1 at 4 °C for 1 h, protein A- or protein G-Sepharose; blotted with Flag (M2) or SSBP1 antibody
row,binding,Substance
1,binds,Flag-tagged hHSF1 (wild type) (from UniProt Q00613 1-529)
2,no binding,Flag-tagged hHSF1-K188A (from UniProt Q00613 1-529)
3,no binding,Flag-tagged hHSF1-K188G (from UniProt Q00613 1-529)
4,binds,Flag-tagged hHSF1-K188R (from UniProt Q00613 1-529)
